In patent US8003610B2, “Bradykinin B2 receptor antagonist peptide from amphibian skin” (priority 2003, dated 2011):
At least one compound was matched to its structure with a doubt left. Ends that are not written are not given here.

Columns and labels:
[1] = molecular target: autologous receptor (of ornithokinin) cloned from chicken; details: (Tyr^0)-radioiodinated ornithokinin as competing ligand; read-out: affinity; cited from earlier work
[2] = test system: rat tail artery smooth muscle; assay: direct relaxation of phenylephrine pre-constricted rat tail artery preparation
Method: Male albino Wistar rats (200-250 g) were euthanised by asphyxiation followed by cervical dislocation. The tail artery was prepared as described previously (Chen T et al, Peptides. 2002; 23:1547-1555, Chen T et al, Eur. J. Biochem. 2002; 269:4693-4700, Hirst et al Br. J. Radiol. 1994; 67:795-799). After perfusion of arterial preparations with 1×10^−5M phenylephrine to obtain constriction plateaux, relative relaxation was recorded as described below following applications of reconstituted 100 μl aliquots of HPLC fraction samples (1-240) from B. maxima skin secretion. This was carried out to exclude those fractions (25) containing direct arterial smooth muscle relaxant activity. […] Changes in arterial smooth muscle tone were measured by a pressure transducer system and the percentage relative relaxations induced by bradykinin in the presence of reconstituted fractions were calculated using the MacLab computer package.
Arterial smooth muscle preparations were prepared as described previously and treated with phenylephrine (1×10^−5M) until constriction plateaux were achieved. […] 2) The effect of prior addition of a range of concentrations of kinestatin on the observed activity of subsequently added bradykinin at its maximally effective concentration (10^−6M) was determined. […] During a 20 min perfusion period, changes in arterial pressure were recorded as described previously. […]

In the case of RPPGFSPFR [bradykinin], the Kd [1] is listed as greater than 1000 nM, the “concentration of maximal relaxing activity” value ([2]; rat tail arterial smooth muscle preparation) is listed as “one” and the “maximal effective concentration (relaxation)” value ([2]; rat tail artery, phenylephrine 1×10^−5M) is listed as 1000 nM.
